# Results taken from article PMC7862700.
# The entries are a selection whose mix differs from that of the whole data set. At the low end of the ranking the order means little.
# What was measured:
# Test in all cases: DAPPL (digital affinity profiling via proximity ligation, sequencing)
# Conditions in all cases: 10 mM Tris-HCl pH 7.5, 50 mM NaCl, 1 mM DTT, 4% glycerol, room temperature, 30 min; GST-TFs on glutathione beads, 16-mer random dsDNA library, 0.1% …; high values mean tight binding; double strand, one strand shown; scale: fold enrichment (6-mer frequency, TF over GST control)
# ELK1 = biological target: T1, ELK1 (UniProt P19419)
# T1 sequence: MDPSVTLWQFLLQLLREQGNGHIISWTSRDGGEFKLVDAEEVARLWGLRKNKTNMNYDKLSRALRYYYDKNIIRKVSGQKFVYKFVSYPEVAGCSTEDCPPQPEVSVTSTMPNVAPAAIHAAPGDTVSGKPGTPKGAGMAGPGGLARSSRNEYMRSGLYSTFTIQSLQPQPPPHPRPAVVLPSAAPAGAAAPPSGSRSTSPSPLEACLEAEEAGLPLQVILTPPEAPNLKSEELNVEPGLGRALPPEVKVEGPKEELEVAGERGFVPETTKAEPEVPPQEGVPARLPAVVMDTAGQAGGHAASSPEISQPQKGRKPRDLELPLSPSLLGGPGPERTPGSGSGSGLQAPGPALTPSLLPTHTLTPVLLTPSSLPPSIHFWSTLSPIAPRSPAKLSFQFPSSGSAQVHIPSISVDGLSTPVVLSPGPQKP
# ELK3 = biological target: T2, ELK3 (UniProt P41970)
# T2 sequence: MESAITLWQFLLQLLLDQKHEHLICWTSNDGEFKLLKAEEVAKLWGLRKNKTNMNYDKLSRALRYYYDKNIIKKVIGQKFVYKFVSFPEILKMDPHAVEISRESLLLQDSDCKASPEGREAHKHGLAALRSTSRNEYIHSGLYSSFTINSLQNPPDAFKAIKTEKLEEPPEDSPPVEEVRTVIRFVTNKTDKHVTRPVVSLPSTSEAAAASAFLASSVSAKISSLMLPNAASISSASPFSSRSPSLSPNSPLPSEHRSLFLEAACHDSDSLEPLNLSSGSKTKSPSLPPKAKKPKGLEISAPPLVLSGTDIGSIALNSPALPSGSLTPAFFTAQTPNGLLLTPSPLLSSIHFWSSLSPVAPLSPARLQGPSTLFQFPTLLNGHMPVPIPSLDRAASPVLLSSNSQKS
# SPIC = biological target: T3, SPIC (UniProt Q8N5J4)
# T3 sequence: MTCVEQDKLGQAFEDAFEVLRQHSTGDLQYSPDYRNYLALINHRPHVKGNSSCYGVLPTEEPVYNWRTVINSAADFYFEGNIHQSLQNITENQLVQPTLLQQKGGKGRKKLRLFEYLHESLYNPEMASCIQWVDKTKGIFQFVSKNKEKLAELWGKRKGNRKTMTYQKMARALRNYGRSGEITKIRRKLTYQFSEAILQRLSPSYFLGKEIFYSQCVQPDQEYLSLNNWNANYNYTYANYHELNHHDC
# ETS2 = biological target: T4, ETS2 (UniProt P15036)
# T4 sequence: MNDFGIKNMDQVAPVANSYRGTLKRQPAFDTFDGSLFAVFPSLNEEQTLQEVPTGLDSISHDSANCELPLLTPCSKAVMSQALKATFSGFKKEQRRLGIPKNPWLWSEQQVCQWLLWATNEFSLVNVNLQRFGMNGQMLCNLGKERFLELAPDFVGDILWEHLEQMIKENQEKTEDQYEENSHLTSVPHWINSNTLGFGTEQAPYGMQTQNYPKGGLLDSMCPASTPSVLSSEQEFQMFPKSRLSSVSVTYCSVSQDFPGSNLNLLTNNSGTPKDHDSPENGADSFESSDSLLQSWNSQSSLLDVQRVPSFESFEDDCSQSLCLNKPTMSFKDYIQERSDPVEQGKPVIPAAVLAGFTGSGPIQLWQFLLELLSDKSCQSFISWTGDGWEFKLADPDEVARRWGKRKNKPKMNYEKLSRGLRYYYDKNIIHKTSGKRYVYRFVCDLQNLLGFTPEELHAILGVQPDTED
# ETV3 = biological target: T5, ETV3 (UniProt P41162-2)
# T5 sequence: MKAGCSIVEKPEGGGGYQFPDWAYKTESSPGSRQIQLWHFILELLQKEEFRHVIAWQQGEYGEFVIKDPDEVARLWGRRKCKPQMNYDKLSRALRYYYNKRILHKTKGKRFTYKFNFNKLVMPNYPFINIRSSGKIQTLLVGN
Sequence,binding signal (ELK1),binding signal (ELK3),binding signal (SPIC),binding signal (ETS2),binding signal (ETV3)
TTAGGA,0.936,0.952,0.939,0.996,0.88
GGATTA,0.833,0.866,0.852,0.847,0.763
ACCTAG,0.959,0.998,1.01,1.06,0.922
AAGCCG,0.939,0.968,0.892,0.863,0.916
CCGTTA,0.97,0.905,0.987,0.966,0.961
GTGACT,0.952,0.902,0.875,0.945,0.879
GCGTTA,0.928,1.09,0.813,0.93,0.905
TTGGAT,0.953,0.915,0.964,0.97,0.897
CCGCGG,0.945,0.771,0.845,0.957,0.959
CCAAGA,0.941,0.908,0.901,0.9,0.885
AGAATC,0.879,0.97,0.85,0.957,0.9
GACTAT,0.897,0.858,0.912,0.963,0.987
GCACAC,0.994,0.926,0.917,0.924,1.05
CGGTTA,0.988,1,0.947,0.963,0.964
CGGCCC,1.03,0.877,0.983,0.935,0.926
TCAAGA,0.882,0.92,0.912,0.854,0.822
GCGAAA,0.969,0.864,0.893,0.946,0.885
GATACC,0.983,0.803,0.996,0.971,0.933
AGAACC,0.946,0.889,1.03,0.903,0.872
AGCCCA,0.959,0.957,0.918,0.945,0.898
AATCGT,0.817,0.778,0.876,0.896,0.919

Sequence,binding signal (ELK1),binding signal (ELK3),binding signal (SPIC),binding signal (ETS2),binding signal (ETV3)
TCGCGA,0.899,0.769,0.986,0.834,0.801
CGGCAC,0.924,0.942,0.972,0.932,1.03
TTCAGA,0.931,0.971,0.984,0.984,0.938
CGGACC,0.801,0.74,0.718,0.786,0.873
GATAAC,0.996,0.961,0.73,0.97,0.942
TAAGGG,0.897,1.04,1.18,1,0.938
ATTAGA,0.885,0.89,0.935,0.862,0.887
CATTAG,0.914,0.894,0.976,0.895,0.999
GAGCTC,0.923,0.85,0.963,0.898,0.838
CAGAAA,0.932,0.943,0.97,0.961,0.931
TAAGAC,0.91,0.893,0.992,0.907,0.879
GATCAT,0.973,1.1,0.912,0.97,0.926
AGTACC,0.932,0.907,0.975,0.93,0.907
CAGATC,0.947,0.893,0.869,0.903,0.927
GCTACG,1.22,,1.12,,1.05
GCCTGG,0.991,1.01,0.771,,0.929
TCCATA,1.3,1.35,1.3,,1.22
CACGAC,1.29,,1.26,,1.15
GAATGC,0.968,0.911,0.954,,0.947
TCGAAC,1.01,,0.856,,0.957
CGAATT,1.1,,1.25,,1.22

# Laid out differently: results already given
Sequence | binding signal (ELK1) | binding signal (ELK3) | binding signal (SPIC) | binding signal (ETS2) | binding signal (ETV3)
GACTAT | 0.897 | 0.858 | 0.912 | 0.963 | 0.987
TCAAGA | 0.882 | 0.92 | 0.912 | 0.854 | 0.822
CATTAG | 0.914 | 0.894 | 0.976 | 0.895 | 0.999
AGTACC | 0.932 | 0.907 | 0.975 | 0.93 | 0.907

# The list continues.

Sequence,binding signal (ELK1),binding signal (ELK3),binding signal (SPIC),binding signal (ETS2),binding signal (ETV3)
CAGCTA,0.907,,1.07,,0.994
ATGCGT,0.996,0.937,1.07,,0.975
ACAAAA,1.11,,0.979,,1.13
CACAAG,1.17,,1.09,,1.16
TTAGGC,0.996,0.902,1.08,,0.95
CAGTAT,0.938,,0.98,,0.936
CGAATG,0.913,,0.915,,0.976
TGTCAA,0.981,0.998,0.886,,1.08
GCATCT,1.02,0.925,0.988,,0.947
GTTAGC,0.957,0.864,0.93,,0.863
GCGATA,0.977,,0.912,,0.994
TGGGCA,0.97,,0.928,,0.985
GTCTCG,1.37,1.37,1.21,,1.33
TCAGCC,1.11,,0.822,,0.924
AAAGCT,1.09,,0.974,,1.04
TAATGG,1.35,,1.34,,1.28
CGCACG,0.993,,0.96,,0.998
CGAACG,0.907,0.984,1.11,,0.905
CTTATT,1.39,,1.62,,1.31
ACGCGT,0.919,0.951,0.985,,0.947
